Source: paper PMC5909903, “Impact of selected amino acids of HP0377 (Helicobacter pylori thiol oxidoreductase) on its functioning as a CcmG (cytochrome c maturation) protein and Dsb (disulfide bond) isomerase” (PLoS ONE, 2018)
No constants are given. Whether binding was seen depends on the method and setting. Sequences can lack the tags named with a protein.

Target: HP0377 (Helicobacter pylori thiol oxidoreductase), amino acids 25-221, His6 fusion (Helicobacter pylori strain 26695) (UniProt O25140)
Assay: SEC; HP0377 alone on ENrich SEC70 column, calibrated with gel filtration standards; both purified

B1: HP0377 (Helicobacter pylori thiol oxidoreductase), amino acids 25-221, His6 fusion (enzyme, UniProt O25140 25-221)
chain: CKSNNKDKLDENLLSSGSQSSKELNDERDNIDKKSYAGLEDVFSDNKSISPNDKYMLLVFGRNGCSYCERFKKDLKNVKELRDYIKEHFSAYYVNISYSKEHDFKVGDKNNEKEIKMSTEELAQIYAVQSTPTIVLSDKTGKTIYELPGYMPSTQFLAVLEFIGDGKYQDTKDDEDLTKKLKAYIKYKTNLSKSKSN
binding: no binding
